Measured values taken from patent US20230364096A1, “USE OF A COMBINATION COMPRISING A BTK INHIBITOR FOR TREATING CANCERS” (BEIGENE SWITZERLAND GMBH, priority 2016, published 2023).
At least one structure is not confirmed: it was looked up by name or label, or the drawing left a doubt.

Test system: obinutuzumab-induced ADCC (IFN-γ secretion)
Assay: Obinutuzumab-induced ADCC assessed by IFN-γ secretion in co-culture of NK92MI cells and Mino cells
Format: cell-based, human
Procedure: Mino cells were cultured in RPMI1640 complete medium supplemented with 10% (v/v) fetal bovine serum, and 100 µg/mLof penicillin and streptomycin. NK92MI/CD16V cell line, overexpressing CD16 and FcRγ chain, was established from parental cell line NK92MI. The cells were maintained in MEM alpha supplemented with 0.2 mM inositol; 0.1 mM 2-mercaptoethanol; 0.02 mM folic acid; 1 ×NEAA; adjust to a final concentration of 20% (v/v) fetal bovine serum and 100 µg/mL of penicillin and streptomycin.
0130] Mino cells (2×10^4cells/well) as the target cells (T) were plated into 96-well plate in triplicates. Cells were treated with vehicle or various concentrations of BTK inhibitors for one hour, followed by co-seeding with NK92MI cells (4×10^4cells/well, as the effector cells (E)) and co-treatment with vehicle or obinutuzumab (2 ug/well) for additional 24 hrs. After incubation, the cell-free supernatants of each well were collected, and the levels of human IFN-γ were measured using Human IFN-γ ELISA Ready-SET-Go kit.

C=CC(=O)N1CCC[C@@H](n2nc(-c3ccc(Oc4ccccc4)cc3)c3c(N)ncnc32)C1 [Ibrutinib]
inhibition of IFN-γ secretion (in words) (at 1 µM): strongly inhibited
inhibition of IFN-γ secretion (in words) (various concentrations): inhibited IFN-γ secretion in a dose-depended manner
